Measurements taken from the supplement of paper PMC10382679.
Single values of this set are uncertain.

B1: Rpb7; numbered along this chain (parent)
chain: MFFIKDLSLNITLHPSFFGPRMKQYLKTKLLEEVEGSCTGKFGYILCVLDYDNIDIQRGRILPTDGSAEFNVKYRAVVFKPFKGEVVDGTVVSCSQHGFEVQVGPMKVFVTKHLMPQDLTFNAGSNPPSYQSSEDVITIKSRIRVKIEGCISQVSSIHAIGSIKEDYLGAI

How the values were obtained:
[1] = variants of: B1; assay: log2 fold change of mutant abundance, UV-irradiated vs unirradiated; higher = more UV resistant (enriched after UV); settings: with Saccharomyces cerevisiae rad7Δ rad26Δ; UV dose (J/m2): 10; genetic background: rad7Δ rad26Δ rpb7Δ + plasmid RPB7 library; outgrowth: 10 cell divisions
[2] = variants of: B1; assay: NOISeq theta enrichment statistic, UV-irradiated vs unirradiated (dimensionless); higher = more UV resistant (enriched after UV); settings: with Saccharomyces cerevisiae rad7Δ rad26Δ; UV dose (J/m2): 10; genetic background: rad7Δ rad26Δ rpb7Δ + plasmid RPB7 library; outgrowth: 10 cell divisions

| Variant | log2 fold change of mutant abundance [1] | NOISeq theta enrichment statistic [2] |
| --- | --- | --- |
| MFFIKDLSLNITLHPSFFGPRSKQYLKTKLLEEVEGSCTGKFGYILCVLDYDNIDIQRGRILPTDGSAEFNVKYRAVVFKPFKGEVVDGTVVSCSQHGFEVQVGPMKVFVTKHLMPQDLTFNAGSNPPSYQSSEDVITIKSRIRVKIEGCISQVSSIHAIGSIKEDYLGAI [M22S] | -0.339 | -0.235 |
| MFFIKDLSLNITLHPSFFGPRMKQYLKTKLLEEVEGSCTGKFGYILCVLDYDNIDIQRGRISPTDGSAEFNVKYRAVVFKPFKGEVVDGTVVSCSQHGFEVQVGPMKVFVTKHLMPQDLTFNAGSNPPSYQSSEDVITIKSRIRVKIEGCISQVSSIHAIGSIKEDYLGAI [L62S] | 0.103 | 0.395 |
| MFFIKDLSLNITLHPSFFGPRMKQYLKTKLLEEVEGSCTGKFGYILCVLDYDNIDIQRGRILPTDGSAEFNVKYRAVVFKPFKGEVVDGTVVSCSQHGFEVYVGPMKVFVTKHLMPQDLTFNAGSNPPSYQSSEDVITIKSRIRVKIEGCISQVSSIHAIGSIKEDYLGAI [Q102Y] | 0.566 | 0.418 |
| MFFIKDLSLNITLHPSFFGPRMKQYLKTKLLEEVEGSCTGKFGYILCVLDYDNIDIQRGRILPTDGSAEFNVKYRAVVFKPFKGEVVDGTWVSCSQHGFEVQVGPMKVFVTKHLMPQDLTFNAGSNPPSYQSSEDVITIKSRIRVKIEGCISQVSSIHAIGSIKEDYLGAI [V91W] | -0.0187 | -0.0176 |
| MFFIKDLSLNITLHPSFFGPRMKKYLKTKLLEEVEGSCTGKFGYILCVLDYDNIDIQRGRILPTDGSAEFNVKYRAVVFKPFKGEVVDGTVVSCSQHGFEVQVGPMKVFVTKHLMPQDLTFNAGSNPPSYQSSEDVITIKSRIRVKIEGCISQVSSIHAIGSIKEDYLGAI [Q24K] | 0.00703 | 0.0115 |
| MFFIKDLSLNITLHPSFFGPRMKQYLKTKLLEEVEGSCTGKFGYILCVLDYDNIDIQRGRILPTDGSAEFNVKYRAVVFKIFKGEVVDGTVVSCSQHGFEVQVGPMKVFVTKHLMPQDLTFNAGSNPPSYQSSEDVITIKSRIRVKIEGCISQVSSIHAIGSIKEDYLGAI [P81I] | 0.141 | 0.127 |
| MFFIKDLSLNITLHPSFFGPRMKQYLKTKLLEEVEGSCTGKFGYICCVLDYDNIDIQRGRILPTDGSAEFNVKYRAVVFKPFKGEVVDGTVVSCSQHGFEVQVGPMKVFVTKHLMPQDLTFNAGSNPPSYQSSEDVITIKSRIRVKIEGCISQVSSIHAIGSIKEDYLGAI [L46C] | -0.0815 | -0.0368 |
| MFFIKDLSLNITLHPSFFGPRMKQYLKTKLLEEVEGSCTGKFGYILCVLDYDNIDIQRGRILPTDGSAEFNVKYRAVVFKPFKGEVVDGTVVSCSQHGFEVQVGPMKVFVTKHLMPQDLTFNAGSNPPSYQSSEDVISIKSRIRVKIEGCISQVSSIHAIGSIKEDYLGAI [T138S] | 0.0454 | 0.24 |
| MFFIKDLSLNITLHPSFFGPRMKQYLKTKLLEEVEGSCTGKFGYILCVLDYDNIDIQRGRILPTDGSAEFNVKYRAVVFKPFKGEVVDGTVVSCSQHGFEVQVGPMKVFVTKHLMPQDLTFNAGSNPPSYQSSEDVINIKSRIRVKIEGCISQVSSIHAIGSIKEDYLGAI [T138N] | -0.00173 | -0.00345 |
| MFFIKDLSLNITLHPSFFGPRMKQYLKTKLLEEVEGSCTGKFGYILCVLDYDNIDIQRGRILPTDGSAEFNVKYRAVVFKPFKGEVVDGTVVSCSQHGFEVQVGPMKVFVTKHLMPQDLTFNAGSNPPSYQSSEDVITIKSRIRVKIEGCISQVSNIHAIGSIKEDYLGAI [S156N] | -0.825 | -0.346 |
| MFFIKDLSLNITLHPSFFGPRMKQYLKTKLLEEVEGSCTGKFGYILCVLDYDNIDIQRGRILPTDGSAEFNVKVRAVVFKPFKGEVVDGTVVSCSQHGFEVQVGPMKVFVTKHLMPQDLTFNAGSNPPSYQSSEDVITIKSRIRVKIEGCISQVSSIHAIGSIKEDYLGAI [Y74V] | -0.0591 | -0.0614 |
| MFFIKDLSLNITLHPSFFGPRMKQYLKTKLLEEVEGSCTGKFGYILCVLDYDNIDIQRGRILPTDGSAEFNVKYRAVVFKPFKGEVVDGTVVSCSQHGFEVQVGPMKVFVTKHLMPQDLTFNAGSNPPSYQSSEDVITIKSRIRGKIEGCISQVSSIHAIGSIKEDYLGAI [V145G] | -0.0282 | -0.0358 |
| MFFIKDLSLNITLHPSFFGPRMKQYLKTKLLEEVEGSCTGKFGYILCVLDYDNIDIQRGRILPTDGSAEFNVKYRAVVFKPFKGEVVDGTVVSCSQHGFEVQVGPMKVFVTKHLMPQDLTFNAGSNPPSYQSSEEVITIKSRIRVKIEGCISQVSSIHAIGSIKEDYLGAI [D135E] | -0.0208 | -0.121 |
| MFFIKDLSLNITLHPSFFGPRMKQYLKTKLLEEVEGSCTGKFGYILCVLDYDNIDIQRGRILPTDGSAEFNVKYRAVVFKPFKGEVVDGEVVSCSQHGFEVQVGPMKVFVTKHLMPQDLTFNAGSNPPSYQSSEDVITIKSRIRVKIEGCISQVSSIHAIGSIKEDYLGAI [T90E] | 0.0965 | 0.0983 |
| MFFIKDLSLNITLHPSFFGPRMKQYLKTKLLEEVEGSCTGKFGYILCVLDYDNIDIQRGRILPTDGSAEFNVKYRAVCFKPFKGEVVDGTVVSCSQHGFEVQVGPMKVFVTKHLMPQDLTFNAGSNPPSYQSSEDVITIKSRIRVKIEGCISQVSSIHAIGSIKEDYLGAI [V78C] | -0.0957 | -0.102 |
| MFFIKDLSLNITLHPSFFGPRMKQYLKTKLLEEVEGSCTGKFGYILCVLDYDNIDIQRGRILPTDGSAEFNVKYRAVVFKPFKGEVVDGTVVSCSQHGFMVQVGPMKVFVTKHLMPQDLTFNAGSNPPSYQSSEDVITIKSRIRVKIEGCISQVSSIHAIGSIKEDYLGAI [E100M] | 0.441 | 0.27 |
| MFFLKDLSLNITLHPSFFGPRMKQYLKTKLLEEVEGSCTGKFGYILCVLDYDNIDIQRGRILPTDGSAEFNVKYRAVVFKPFKGEVVDGTVVSCSQHGFEVQVGPMKVFVTKHLMPQDLTFNAGSNPPSYQSSEDVITIKSRIRVKIEGCISQVSSIHAIGSIKEDYLGAI [I4L] | 0.342 | 0.385 |

Looked up above.
NOISeq theta enrichment statistic [2] with MFFIKDLSLNITLHPSFFGPRMKQYLKTKLLEEVEGSCTGKFGYILCVLDYDNIDIQRGRILPTDGSAEFNVKYRAVVFKPFKGEVVDGTVVSCSQHGFEVQVGPMKVFVTKHLMPQDLTFNAGSNPPSYQSSEDVISIKSRIRVKIEGCISQVSSIHAIGSIKEDYLGAI [T138S] is entered as 0.24
log2 fold change of mutant abundance [1] with MFFIKDLSLNITLHPSFFGPRMKQYLKTKLLEEVEGSCTGKFGYILCVLDYDNIDIQRGRISPTDGSAEFNVKYRAVVFKPFKGEVVDGTVVSCSQHGFEVQVGPMKVFVTKHLMPQDLTFNAGSNPPSYQSSEDVITIKSRIRVKIEGCISQVSSIHAIGSIKEDYLGAI [L62S] is entered as 0.103
